Results deposited as PubChem BioAssay AID504784 (Drosophila RNAi Screening Center, 2011).
The deposit covers about 17,000 reagents; this is an unselected part of those that have a named target and a result. 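Each column is one replicate's B-score; the combined score over replicates was not deposited, so single values may mislead.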 Reagents against one gene are numbered here. A plus sign joins genes that one reagent is predicted to hit. Not all columns of the deposit are shown.

- Screen: 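Genome-wide knock-down for genes giving too much or too little stored lipid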 (primary screen)
- Cells: Drosophila Kc167 embryonic cells
- Knock-down reagent: long dsRNA against Drosophila genes, about 250 ng dsRNA per well
- Timing: 4 days
- Challenge: cells fed 400 µM oleic acid bound to BSA
- Read-out: 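Microscope images give a droplet-to-nucleus area ratio, taken as log and converted to a screen-wide B-score; higher values mean greater lipid storage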
- Scale: droplet/nuclear area B-score: higher = more stored lipid (overstorage)

| Target gene | dsRNA no. | droplet/nuclear area B-score, replicate 1 | droplet/nuclear area B-score, replicate 2 |
| --- | --- | --- | --- |
| sp3 | 1 | -0.842 | -0.171 |
| CG32815 | 1 | -0.25 | -1.45 |
| dpr3 | 1 | 0.165 | 0.673 |
| dpr3 | 2 | -0.449 | 1.38 |
| dpr3 | 3 | -3.74 | -4.4 |
| lace | 1 | 0.00234 | 0.302 |
| CG3288 | 1 | 0.538 | 0.133 |
| Ggamma1 | 1 | 0.9 | -1.02 |
| NdufV3 | 1 | 0.59 | -1.29 |
| CG9759 | 1 | -0.0771 | -0.00318 |
| Ser8 | 1 | 0.496 | 0.112 |
| CG10466 | 1 | 0.442 | -0.44 |
| ea | 1 | -0.0533 | -0.532 |
| Icmt | 1 | -0.0643 | -0.0561 |
| CG15594 | 1 | 1.36 | 1.68 |
| CG6576 | 1 | 1.33 | 1.94 |
| swm | 1 | 0.0174 | 0.183 |
| swm | 2 | -0.326 | -0.185 |
| CG44422 | 1 | -0.633 | 0.478 |
| CG44422 | 2 | 2.53 | -0.0274 |
| CG44422 | 3 | 2.4 | 0.359 |
| CG44422 | 4 | 0.633 | 0.081 |
| Amph | 1 | 2.71 | -0.582 |
| squ | 1 | -0.177 | -1.13 |
| r + CG13012 | 1 | -0.619 | -0.00467 |
| CG14384 | 1 | 0.689 | -0.00732 |
| mu2 | 1 | -1.61 | 0.648 |
| mu2 | 2 | -1.01 | 1.07 |
| CG15571 | 1 | 0.661 | 1.51 |
| PpD5 | 1 | 0.0666 | -2.68 |
| PpD5 | 2 | -0.731 | 0.0182 |
| Ggt-1 | 1 | -0.309 | 0.477 |
| Eip78C | 1 | 1.14 | 2.82 |
| Eip78C | 2 | -0.169 | -0.178 |

Copied from the list:
Result of PpD5 #2 under “droplet/nuclear area B-score, replicate 2”: 0.0182
squ, droplet/nuclear area B-score, replicate 2 → -1.13
CG44422 #3, droplet/nuclear area B-score, replicate 2 → 0.359
